Test results: the supplement of paper PMC5949888
Most values lie at the floor of the assay. Slopes are relative: functional sequences can read slightly below zero.

Each substance was assayed on Saccharomyces cerevisiae PS128 hsf1 delta, HSF1(1-493) fusion (assay: growth estimate (transactivation domain function in HSF1 fusion, heat-shock survival) (a.u. (slope of normalised read count over time)); higher = stronger growth at 37°C, i.e. more transactivation activity). Settings: library: random library.

| Substance | growth estimate |
| --- | --- |
| RPSRACHCLLVSRSTSRI | < -0.25 |
| RPSRAHG | < -0.25 |
| RPSRMSLHLSPVAACHV | < -0.25 |
| RPSSERISRREHKGHGGKRP | < -0.25 |
| RPSSQAWPSMY | < -0.25 |
| RPSTWTIGILPTTQSKCVFL | < -0.25 |
| RPSVPSGNPDRADKHE | < -0.25 |
| RPTE | < -0.25 |
| RPTEHTWVRTLSCT | < -0.25 |
| RPTHEQMRRGALGVVFAYTS | -0.245 |
| RPTQQCLRLGMSGIQGHPRC | < -0.25 |
| RPTYYE | < -0.25 |
| RPVGRLRVKIGVYNCCAATL | < -0.25 |
| RPVRRYVPDREGWFVMQETD | < -0.25 |
| RPVWFGYGIAMFRLSPVPQR | < -0.25 |
| RPYQRMGLTTQGQVGLCLTS | < -0.25 |
| RQAG | < -0.25 |
| RQCCRLCASKCTDQYADPAF | < -0.25 |
| RQCEARRDMCLVMIRGIVFA | < -0.25 |
| RQESCNKSASPPGASQVPLL | < -0.25 |
| RQGKRAFHQQKRSM | < -0.25 |
| RQIGGATIRKGR | < -0.25 |
| RQIVH | < -0.25 |
| RQIYMGPTWVFATIWM | < -0.25 |

| Substance | growth estimate |
| --- | --- |
| RQLESTFLASYCIRETYHEA | < -0.25 |
| RQLIR | < -0.25 |
| RQMPRGERGFMNLTWSASER | -0.245 |
| RQMR | < -0.25 |
| RQPAVAPGKRPTSQHRVPPG | < -0.25 |
| RQPRRPM | < -0.25 |
| RQQIAAGVGGSHVGRSPPQT | < -0.25 |
| RQRTDV | < -0.25 |
| RQTAMSMWLIARLK | < -0.25 |
| RQTFSRGVNPLDSVLTRVHR | < -0.25 |
| RQTGVLFLRPSIRIYGDSQA | < -0.25 |
| RQTQLWCRVSAAYFWWRIV | -0.239 |
| RQTTTFN | < -0.25 |
| RQVI | < -0.25 |
| RQYGGIGGDHKLQLTITDRR | < -0.25 |
| RRAFRKRLSTNIRSTRYTRP | < -0.25 |
| RRAKARPCGRGIWRPTTRFH | < -0.25 |
| RRAVINGTWVGEHSWVWSVL | < -0.253 |
| RRCIGV | < -0.25 |
| RRCSVLTTRIPYYVKRSPEV | < -0.25 |
| RRD | < -0.25 |
| RRDDWWCAEWPEKSSERRGG | < -0.25 |
| RRDRTYHSTGVMERLALRLF | < -0.25 |
| RRDVLHPQEQNSCSFFPDHR | < -0.25 |

| Substance | growth estimate |
| --- | --- |
| RREAARWLIL | < -0.25 |
| RRECGPGGNGYPGLGMSDAR | < -0.25 |
| RREDRASPAFPI | < -0.25 |
| RREIGNTVYGEIGWTDSNVT | < -0.25 |
| RRFGFAAHQPEICVGR | < -0.25 |
| RRFHATSFSVCPGPSDTHVS | < -0.25 |
| RRFRRHEHCVQFLGPSRVPR | -0.246 |
| RRFSNQTRKCIRVHIQIYGG | < -0.25 |
| RRFSTTGLYGEHYGSNHFLR | < -0.25 |
| RRFVGQEVRCVQPEITHVIA | -0.248 |
| RRFVLSSVQETLAWFKCIRR | < -0.25 |
| RRGCSLLLALFSVVD | < -0.25 |
| RRGLLFRRG | < -0.25 |
| RRGVEEDALDPQQPCGLITD | < -0.25 |
| RRHPI | < -0.25 |
| RRHSL | < -0.25 |
| RRHYPETMRALLFRNLTR | < -0.25 |
| RRICGV | < -0.25 |
| RRIHHSQPRRVCSAISIQCR | < -0.25 |
| RRIKV | -0.226 |
| RRIRWSILVLAQSAEVCFGP | < -0.25 |
| RRK | < -0.25 |
| RRLAEGTGPCVYYNR | < -0.25 |
| RRLCGTQLAGGTRLEFCSAA | < -0.25 |

| Substance | growth estimate |
| --- | --- |
| RRLITQ | < -0.25 |
| RRLLTKGADLIRYLSLEGPT | < -0.25 |
| RRLMSLVSVMKKFGQLLHLA | < -0.25 |
| RRLSSARVYPSAGRPP | < -0.25 |
| RRLWRKAK | < -0.25 |
| RRLYVDRLWSILAVWRGS | < -0.25 |
| RRMFASVLHPASEAEISVCR | < -0.25 |
| RRMPKVGARSLIGSKYVL | < -0.25 |
| RRMTRPAGHT | < -0.25 |
| RRPEPRVMQGTIFAVLSWPL | -0.243 |
| RRPGDYQYDEMN | 1.5 |
| RRPGGP | < -0.25 |
| RRPRFQFRGAYFRLGRQSPS | < -0.25 |
| RRPRGLGQEYFSSGVGSLSA | < -0.25 |
| RRPRRVGGPYYTRRSPIRRE | < -0.25 |
| RRPTGSFLSNSFRAVFGPES | < -0.25 |
| RRPWAPVYQSNYTKANMRLR | < -0.25 |
| RRQCIVG | < -0.25 |
| RRRAC | < -0.25 |
| RRRGINAESPRAFSQ | < -0.25 |
| RRRIRRMSLGLPGAP | < -0.25 |
| RRRKLTVYSQ | < -0.25 |
| RRRSGVARRIARSTGWVSVL | < -0.25 |
| RRRSRYSLEGNLRWGCHSLG | < -0.25 |

Shown with tabs: entries from further up
Substance	growth estimate
RRPEPRVMQGTIFAVLSWPL	-0.243
RRPGDYQYDEMN	1.5
RRPGGP	< -0.25
RRPRFQFRGAYFRLGRQSPS	< -0.25
RRPRGLGQEYFSSGVGSLSA	< -0.25

(further entries)

| Substance | growth estimate |
| --- | --- |
| RRRWATQKT | < -0.25 |
| RRS | < -0.25 |
| RRSCSSDSPTHLPV | < -0.25 |
| RRSIRDTC | < -0.25 |
| RRSKDV | < -0.25 |
| RRSKRRTEYALCSVRLQCCH | < -0.25 |
| RRSPLISNLFPRHGERRPKR | < -0.25 |
| RRSQSYRVQSEKLALGCRLS | < -0.25 |
| RRSS | < -0.25 |
| RRSSIWGRSLGGPARSTPSF | -0.229 |
| RRSSREDYDGGGLNIGSNTR | < -0.25 |
| RRSYPAV | < -0.25 |
| RRTCRLRIEPGGFRPSCSGG | < -0.25 |
| RRTCVQLRFDQTGRGYGAGN | < -0.25 |
| RRTGTQ | < -0.25 |
| RRTHVGKRVLCRYLITC | < -0.25 |
| RRTIGLGTKVGAGRSWI | < -0.25 |
| RRTNDHTRNLYLPNMSVKHH | < -0.25 |
| RRTREPLNDLMVQLR | < -0.25 |
| RRTRKHGCFRLRSLAVFTSS | < -0.25 |
| RRTRVSTMTCDLGVSRCLGA | < -0.25 |
| RRTTSVYIASIISNIQVAKP | < -0.25 |
| RRVGFAPGVAGVRFLGCDQK | < -0.25 |
| RRVGGWS | < -0.25 |

| Substance | growth estimate |
| --- | --- |
| RRVLRAYPVNVGDTSRCRQS | < -0.25 |
| RRVPRSTSYNVPF | < -0.25 |
| RRVR | < -0.25 |
| RRVTPLPQNISRMQLLQLGV | < -0.25 |
| RRVY | -0.0574 |
| RRYYT | < -0.25 |
| RSAVRSIRVTARSYQNRKAE | < -0.25 |
| RSCFRDGPGEITYAFRTRPE | -0.246 |
| RSCLLNQFTAALTHEGNNAR | < -0.25 |
| RSCPTFIV | < -0.25 |
| RSCVRR | < -0.25 |
| RSDFGRSPPQVWPCDPS | < -0.25 |
| RSDGPGLARAEVLSCECSAP | < -0.25 |
| RSDLGPEHPGG | < -0.25 |
| RSDLLSCRCIMWGL | < -0.25 |
| RSDLRAQ | < -0.25 |
| RSDRVWVLENGDRATDGTRT | < -0.25 |
| RSECGVHQLMGIQVAKAAKA | < -0.25 |
| RSEEDLRRVISSP | < -0.25 |
| RSEF | < -0.25 |
| RSEIERFAFECVGL | < -0.25 |
| RSEKPLEANRYWCRTIK | < -0.25 |
| RSERQDVR | < -0.25 |
| RSFDSEESRVG | < -0.25 |

Taken from the listing for reference:

| Substance | growth estimate |
| --- | --- |
| RSDRVWVLENGDRATDGTRT | < -0.25 |
| RSECGVHQLMGIQVAKAAKA | < -0.25 |
